Values of other authors, collected in patent publication US20210106700A1, “Fractionated Dosing of a Phospholipid Ether Analog for the Treatment of Cancer” (Cellectar Biosciences, Inc., priority 2018, published 2021).
For at least one compound, name, drawing or mass did not settle the structure.

Test system: cancer cells and cancer stem cells
Details: xenograft, orthotopic and transgenic cancer and cancer stem cell derived animal models; cited from earlier work

Q: With `C[N+](C)(C)CCOP(=O)([O-])OCCCCCCCCCCCCCCCCCCc1ccc(I)cc1` [CLR1404, 18-(p-iodo-phenyl)octadecyl phosphocholine] as the compound, how does the “Tumor selectivity, number of animal models” value read?
A: 55/60
